## Results of single-concentration screens

Measurements from “University of Dundee, Small-Polar-MMV Screening Library” (2021), ChEMBL document CHEMBL3988442.

Values are the deposited “Percent Effect”, in %.
How 0% and 100% were set is not recorded. Most values in the screen are low, and negative values occur.
The compounds are a random part of those screened.
Two or more numbers in one place are separate tests of the same structure; such repeats can differ widely.

Mtb cholesterol medium: 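Whole-cell growth test on Mycobacterium tuberculosis, read after 4 days in a medium based on cholesterol and the lipid DPPC; the read-out is not stated. Compounds at 50 µM. Higher reads as more growth inhibition (inferred: compounds with an IC50 in retests scored well above the rest). Size under these conditions: about 69,000 compounds, about 370 of them at 50% or above in at least one test.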
Mtb glucose medium: 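Growth of Mycobacterium tuberculosis over 3 days (7H9 medium with glucose and tyloxapol); the read-out is not stated. Tested at 50 µM. Higher reads as more growth inhibition (inferred: compounds with an IC50 in retests scored well above the rest). Size under these conditions: about 69,000 compounds, about 760 of them at 50% or above in at least one test.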

Cc1cccc(OCc2ccc(C(=O)N3N=CCC3(O)C(F)(F)F)o2)c1 (stereo unspecified) read Mtb cholesterol medium: -9.393%; Mtb glucose medium: -19.93% & 11.37%.
[H][C@]12CCN(C(=O)c3ccc4ccccc4c3)C[C@@]1([H])OCCN(C(C)=O)C2 read Mtb cholesterol medium: -12.55%; Mtb glucose medium: -2.138%.
CS(=O)(=O)N1CC(c2ncn3ccccc23)C1 read Mtb cholesterol medium: -10.69%; Mtb glucose medium: -1.161% & -11.2%.
CCCN1CCCn2c(nc(CNC(=O)c3nccn3C)cc2=O)C1.O=C(O)C(F)(F)F read Mtb cholesterol medium: -8.124%; Mtb glucose medium: -4.039% & -0.8363%.
CN(C)C(=O)CNC(CC(F)(F)F)c1ccc(F)cc1 (stereo unspecified) read Mtb cholesterol medium: 7.914%; Mtb glucose medium: -2.985% & 10.71%.
Cc1ccn2ncc(C(=O)N3CCCC(c4cc(C)[nH]n4)C3)c2n1 (stereo unspecified) read Mtb cholesterol medium: 3.162%; Mtb glucose medium: 30.04%.
O=C(NCc1cccc(F)c1F)c1cc(CN2CCCC(O)C2)on1 (stereo unspecified) read Mtb cholesterol medium: 1.047%; Mtb glucose medium: -18.67%.
CS(=O)(=O)N1CCCC12CCCN(C(=O)c1ccc3c(c1)OCO3)C2 (stereo unspecified) read Mtb cholesterol medium: 5.101% & -3.025%; Mtb glucose medium: 4.3% & 1.086%.
COc1cc(OC)cc(-c2noc(CN)n2)c1 read Mtb cholesterol medium: -54.01%; Mtb glucose medium: -51.02%.
O=C(O)C(F)(F)F.c1coc(CNc2ncc3c(n2)C2(CCNC2)COC3)c1 (stereo unspecified) read Mtb cholesterol medium: 18.32%; Mtb glucose medium: 15.06% & -1.959%.
COc1ccc(CNC(Cn2cncn2)c2ccccc2)cc1C (stereo unspecified) read Mtb cholesterol medium: 13.18%; Mtb glucose medium: 9.3%.
CC(=O)N1CCOC[C@H](Oc2ccc(C(F)(F)F)cc2)C1 read Mtb cholesterol medium: -10.96%; Mtb glucose medium: -3.902% & -39.83%.
Cn1cnc2c1C(COCC1CC1)CN(C(=O)c1cscn1)C2.O=C(O)C(F)(F)F (stereo unspecified) read Mtb cholesterol medium: -13.58% & 4.18%; Mtb glucose medium: -9.601% & -1.17%.
[H][C@@]12CCN(S(C)(=O)=O)C[C@]1([H])[C@@H](CNC(=O)c1nccn1C)OC2 read Mtb cholesterol medium: -15.43%; Mtb glucose medium: -7.829%.
CCN(Cc1ccccn1)C1CCN(c2ccccc2)C1=O (stereo unspecified) read Mtb cholesterol medium: 4.312%; Mtb glucose medium: 15%.
COc1cccc2ccn(CC(=O)NCC(C)C)c12 read Mtb cholesterol medium: -29.78%; Mtb glucose medium: -22.62%.
Cc1cc(CN2CCC(c3ccnn3CCO)CC2)no1 read Mtb cholesterol medium: -2.697%; Mtb glucose medium: 1.688%.
O=C(NCCOc1ccc2c(c1)CCC2)N1CCS(=O)(=O)CC1 read Mtb cholesterol medium: -20.9%; Mtb glucose medium: -30.34%.
COCC(=O)N1CC[C@@H](N2CCOCC2)[C@@H]1Cc1ccccc1 read Mtb cholesterol medium: -16.8%; Mtb glucose medium: -13.73%.
CC(O)CN1CCN(Cc2cccc(C(=O)N3CCCCC3)c2)CC1 (stereo unspecified) read Mtb cholesterol medium: -31.95%; Mtb glucose medium: -9.157% & -10.99%.
Cc1nc(NCc2noc(C3CCCO3)n2)c2ccsc2n1 (stereo unspecified) read Mtb cholesterol medium: 4.842% & 9.119%; Mtb glucose medium: -7.248%.
CCCN(CC1CC1)C(=O)Cn1ccccc1=O read Mtb cholesterol medium: -0.6215%; Mtb glucose medium: -27.7%.
CC(=O)N1CCN([C@@H]2CCC[C@@H](N(C)C(=O)C3CC3)[C@H]2O)CC1 read Mtb cholesterol medium: -3.398%; Mtb glucose medium: 14.24%.
CCCC(=O)N(CCCN1CCOCC1)c1nc2c(C)ccc(Cl)c2s1.Cl read Mtb cholesterol medium: 49.91%; Mtb glucose medium: 19.43% & 20.22%.
NC(=O)CNC(=O)c1ccc(CNCc2ccc(Cl)cc2Cl)cc1 read Mtb cholesterol medium: 4.884%; Mtb glucose medium: -1.488%.
CN(Cc1ccsc1)C(=O)Nc1cccc(N2CCOC2=O)c1 read Mtb cholesterol medium: -31.85%; Mtb glucose medium: -31.47%.
COc1ccccc1C(=O)N1CCC(Oc2ccc(C#N)cn2)CC1 read Mtb cholesterol medium: 9.565%; Mtb glucose medium: 35.11%.
CCC(C)NC(=O)CS(=O)(=O)Cc1cc(Cl)c2c(c1)OCCCO2 (stereo unspecified) read Mtb cholesterol medium: -2.397%; Mtb glucose medium: -6.8%.
N[C@H]1CC[C@@H](n2cc(C(=O)NC3CCc4ccccc4C3)nn2)CC1 (stereo partly specified) read Mtb cholesterol medium: 5.811%; Mtb glucose medium: 30.78%.
O=C(c1ccco1)N(CC(F)(F)F)C1CCOCC1 read Mtb cholesterol medium: 17.68%; Mtb glucose medium: 25.84%.
N#Cc1ccc(N2CCC3(CCC(=O)N3CCN3CCCC3)CC2)nc1.O=C(O)C(F)(F)F.O=C(O)C(F)(F)F read Mtb cholesterol medium: 8.043%; Mtb glucose medium: 6.557%.
CN1CCCCC(C2CCN(S(=O)(=O)c3cn(C)cn3)CC2)C1=O (stereo unspecified) read Mtb cholesterol medium: -8.407% & -18.62%; Mtb glucose medium: -19.16%.
O=C(Nc1ccc(S(=O)(=O)Nc2c(F)cccc2F)cc1)N1CCCC1 read Mtb cholesterol medium: 2.827%; Mtb glucose medium: 2.274%.
O=C(O)C(F)(F)F.O=C(O)C(F)(F)F.O=C(O)CN1CCC(F)(F)C2(CCN(c3ccccc3)C2)C1 (stereo unspecified) read Mtb cholesterol medium: 4.614%; Mtb glucose medium: 2.614% & 15.08%.
O=C(O)c1ccc(S(=O)(=O)Nc2cnn(CC(F)(F)F)c2)cc1 read Mtb cholesterol medium: 5.019%; Mtb glucose medium: -2.838% & 4.319%.

Repeated from the top, 2 entries:

Result for Cc1cccc(OCc2ccc(C(=O)N3N=CCC3(O)C(F)(F)F)o2)c1 (stereo unspecified) was Mtb cholesterol medium: -9.393%; Mtb glucose medium: -19.93% & 11.37%.
Result for [H][C@]12CCN(C(=O)c3ccc4ccccc4c3)C[C@@]1([H])OCCN(C(C)=O)C2 was Mtb cholesterol medium: -12.55%; Mtb glucose medium: -2.138%.